Data source: PubChem BioAssay AID1508597 (Cure First, 2020)
Assay: 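Knock-downs altering ovarian cancer cell survival with or without PARP inhibitor rucaparib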 (primary screen). Cell system: human ovarian carcinoma lines grown from tumours: OCI-P5x (papillary serous) and OCI-C5x (clear cell). Knock-down reagent: siRNA pool against human genes, 1.25 pmol siRNA per well. Duration: 72 h or 96 h, depending on the cell culture. Conditions: rucaparib 20 µM (about IC30) or vehicle, present until read-out. Rucaparib or vehicle: Vehicle. Cell line: OCI-C5x (clear cell). Read-out: 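Luminescent ATP-based viability assay read 72 or 96 h after transfection, depending on culture, given as normalised percent viability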. Reading the numbers: viability, normalised: higher = more viable cells remaining. Call rule: 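a well counts as a hit if its normalised viability is under 80 percent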. Calls: active = viability under 80%; inactive = viability 80% or more.
This is a random part of the about 2,100 reagents, under one of the conditions tested. 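Calls flag viability under 80% in either arm, not effects specific to rucaparib; the reference for percent is not stated.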 Some reagents were tested in more than one well and are listed for each. Not stated in the record: the 100% reference.

gene	technical replicate	viability, normalised (%)	Call
HDGFL2 (HDGF like 2)	1	48.8	active
HDGFL2 (HDGF like 2)	2	28.8	active
HDGFL2 (HDGF like 2)	3	43.6	active
NME4 (NME/NM23 nucleoside diphosphate kinase 4)	1	48.3	active
NME4 (NME/NM23 nucleoside diphosphate kinase 4)	1	67	active
NME4 (NME/NM23 nucleoside diphosphate kinase 4)	1	36	active
NME4 (NME/NM23 nucleoside diphosphate kinase 4)	2	37.4	active
NME4 (NME/NM23 nucleoside diphosphate kinase 4)	2	59.7	active
NME4 (NME/NM23 nucleoside diphosphate kinase 4)	2	38.1	active
NME4 (NME/NM23 nucleoside diphosphate kinase 4)	3	46.6	active
NME4 (NME/NM23 nucleoside diphosphate kinase 4)	3	39.2	active
NME4 (NME/NM23 nucleoside diphosphate kinase 4)	3	41.7	active
ETNK2 (ethanolamine kinase 2)	1	35.7	active
ETNK2 (ethanolamine kinase 2)	2	61.1	active
ETNK2 (ethanolamine kinase 2)	3	42.5	active
MARK3 (microtubule affinity regulating kinase 3)	1	58.4	active
MARK3 (microtubule affinity regulating kinase 3)	2	49.8	active
MARK3 (microtubule affinity regulating kinase 3)	3	46.9	active
JMJD6	1	57.8	active
JMJD6	2	50.8	active
JMJD6	3	55.9	active
ARFRP1 (ARF related protein 1)	1	94.7	inactive
ARFRP1 (ARF related protein 1)	2	64	active
ARFRP1 (ARF related protein 1)	3	57	active
PARP9 (poly(ADP-ribose) polymerase family member 9)	1	39.4	active
PARP9 (poly(ADP-ribose) polymerase family member 9)	2	39.4	active
PARP9 (poly(ADP-ribose) polymerase family member 9)	3	27.6	active
PDE7A (phosphodiesterase 7A)	1	45.4	active
PDE7A (phosphodiesterase 7A)	2	43.3	active
PDE7A (phosphodiesterase 7A)	3	46	active
SP1 (Sp1 transcription factor)	1	65.2	active
SP1 (Sp1 transcription factor)	2	35.8	active
SP1 (Sp1 transcription factor)	3	52.8	active
DAP3 (death associated protein 3)	1	53.9	active
DAP3 (death associated protein 3)	2	53.2	active
DAP3 (death associated protein 3)	3	40.5	active
UBR7 (ubiquitin protein ligase E3 component n-recognin 7)	1	54.9	active
UBR7 (ubiquitin protein ligase E3 component n-recognin 7)	2	51.3	active
UBR7 (ubiquitin protein ligase E3 component n-recognin 7)	3	75	active

Copied from above for reference:
gene	technical replicate	viability, normalised (%)	Call
NME4 (NME/NM23 nucleoside diphosphate kinase 4)	1	67	active
NME4 (NME/NM23 nucleoside diphosphate kinase 4)	1	36	active
